We go through 67 compounds from PubChem BioAssay AID901 (National Center for Advancing Translational Sciences (NCATS), 2007).

Some of the results follow. The main result of the screen is listed elsewhere. These columns were measured beside it and carry no call. Most of these compounds were active or inconclusive in the main read-out, so they are no random draw. Potencies come from curve fits of mixed quality, noted in brackets.

The assay can be described thus: qHTS Assay for Identifying the Cell-Membrane Permeable IMPase Inhibitors. Particulars: CHO-M1 cells, IP1 accumulation, HTRF TR-FRET ratio; measured here: donor channel 620 nm AC50. Background: qHTS replaces the single test concentration by a dilution series.
The term AC50 denotes the midpoint of the concentration-response curve, whichever way the signal moves. Turning to `Cc1nn2c(-c3ccco3)nnc2c2ccccc12`, the half-maximal activity concentration (AC50) was 1.41 µM [falling, full curve, poor fit].

As for `COc1ccccc1N1CCN(C(=O)COc2ccc(C)cc2Br)CC1`, the AC50 is 0.794 µM [rising, full curve, poor fit].

Consider `C/C(=N\S(=O)(=O)c1ccc(C)cc1)N1CCN(S(=O)(=O)c2ccccc2)C1`, for which the half-maximal activity concentration (AC50) was 31.6 µM [falling, single point]. Turning to `CCOc1ccc(C(=O)Nc2cccc(-c3nc4cccnc4o3)c2)cc1Cl`, the half-maximal activity concentration (AC50) is 31.6 µM [falling, single point]. To `Cc1ccc(S(=O)(=O)Cc2nc3ccccc3c(=O)[nH]2)cc1` belongs 1.58 µM [falling, full curve, poor fit]. Take `CCOc1ccc(NS(=O)(=O)c2ccc(NC(=O)C3CCCO3)cc2)cc1` (configuration not stated): the AC50 is 0.0794 µM [falling, full curve, poor fit]. `C=CCNC(=S)NNC(=O)c1cccn(Cc2ccc(Cl)cc2Cl)c1=O`: the AC50 was 0.0398 µM [falling, full curve, poor fit]. On to `Cc1ccc(Cl)cc1NC(=O)COC(=O)C12CC3CC(CC(C3)C1)C2`, for which the AC50 was 31.6 µM [rising, single point]. Take `Cc1cccc(NC(=O)CSc2nc(-c3ccccc3)c(C#N)c(=O)[nH]2)c1C`: the AC50 was 25.1 µM [rising, single point]. In the case of `CCCCc1c(C)nc(N)[nH]c1=O` it was 0.01 µM [rising, full curve, poor fit]. For the compound `O=C(O)CC(c1ccccc1)n1cccc1` (configuration not stated), the concentration at half-maximal activity (AC50) was 0.01 µM [rising, full curve, poor fit].

`O=C(NCCCNc1ccc(C(F)(F)F)cc1[N+](=O)[O-])c1ccc(Cl)cc1`: the AC50 was 5.01 µM [rising, full curve]. For the compound `COc1ccccc1N1CCN(C(=O)c2cc(-c3ccc4c(c3)OCO4)on2)CC1`, the AC50 was 0.02 µM [falling, full curve, poor fit]. In the case of `Cn1nnc(NC(=O)CSc2ncn[nH]2)n1`, the AC50 was 0.126 µM [rising, full curve]. With `COc1cccc(CNCCNC(=O)c2nonc2N)c1`, the half-maximal activity concentration (AC50) was 0.158 µM [falling, single point]. Turning to `O=S(=O)(c1ccc(-c2csc(-c3cccnc3)n2)cc1)N1CCCCC1`, the half-maximal activity concentration (AC50) was 15.8 µM [falling, single point].

`CCN(CC)c1ccc(NC(=O)c2nc3nc(C)cc(C(F)F)n3n2)cc1`: the half-maximal activity concentration (AC50) was 0.126 µM [falling, full curve, poor fit]. As for `CC(C)(C=O)C1=CC(=O)c2ccccc2C1=O`, the concentration at half-maximal activity (AC50) was 22.4 µM [falling, single point]. Regarding `O=C(O)CCCCCNCc1ccncc1`, the concentration at half-maximal activity (AC50) is 0.0158 µM [rising, full curve, poor fit].

For the compound `COC(=O)c1cc(COc2ccc3oc(C)c(C(=O)OC)c3c2)c(C)o1`, the AC50 is 10 µM [falling, partial curve, poor fit]. Turning to `O=C(c1cnccn1)N(c1ccccc1)C1(C(=O)NC2CCCCC2)CCCCC1`, the AC50 was 5.01 µM [rising, partial curve, poor fit]. In the case of `O=C(O)C1CC=CCC1C(=O)N1CCN(c2nc(-c3ccccc3Cl)c3cc(Br)ccc3n2)CC1` (configuration not stated) it was 15.8 µM [rising, single point]; in that of `OCCNc1ncnc2ccc(Br)cc12`, 0.0794 µM [falling, full curve, poor fit]. To `CCOC(=O)c1c(-c2cccs2)csc1NC(=O)CCCC(=O)O` belongs 20 µM [rising, single point]; to `COC(=O)CSc1cc(C)nc2ccc(OC)cc12`, 0.01 µM [rising, full curve, poor fit]. In the case of `O=C(CCn1c(=O)[nH]c2ccccc2c1=O)N1CCN(c2ccc(Cl)cc2)CC1`, the half-maximal activity concentration (AC50) is 6.31 µM [falling, single point].

On to `CCCNC(=O)N1CCC(C(=O)c2cccc(F)c2)CC1`, for which the concentration at half-maximal activity (AC50) is 10 µM [rising, partial curve]. To `COc1ccc2c(CC(=O)NC3CCCc4ccccc43)coc2c1` (configuration not stated) belongs 0.112 µM [falling, full curve]. For the compound `Cc1ccccc1-c1nnc(SCc2ccccc2)o1`, the half-maximal activity concentration (AC50) was 5.01 µM [rising, single point]. In the case of `CCOC(=O)c1ccccc1NC(=O)c1cncc(Br)c1` it was 5.62 µM [rising, single point]; in that of `COC(=O)c1ccccc1NC(=O)c1cc2sccc2n1C`, 39.8 µM [falling, partial curve, poor fit].

In the case of `O=C(c1ccccc1NS(=O)(=O)c1cccs1)N1CCCC1`, the concentration at half-maximal activity (AC50) is 0.01 µM [rising, full curve, poor fit].

Regarding `O=C(NC(=S)Nc1ccc(S(=O)(=O)N2CCCCC2)cc1)c1ccccc1`, the AC50 was 15.8 µM [falling, partial curve, poor fit].

`Cc1[nH]c(=O)[nH]c(=O)c1/C=N/NC(=O)[C@@H](NC(=O)OC(C)(C)C)C(C)C`: the AC50 was 1 µM [falling, partial curve].

Consider `CC(C)N1C(=O)c2ccccc2C1C(=O)NC1CCCCCC1` (configuration not stated), for which the AC50 is 5.01 µM [falling, partial curve, poor fit]. In the case of `CCc1nnc(NC(=O)c2ccc(S(=O)(=O)N3CCN(Cc4ccccc4)CC3)cc2)s1`, the AC50 is 0.794 µM [rising, full curve, poor fit]. Turning to `CCn1c(=S)ccc2ccc(OC)cc21`, the AC50 was 15.8 µM [rising, single point].

On to `CCn1cc(C2=NOC(C(=O)Nc3cc(OC)c(Cl)cc3OC)C2)c(C)n1` (configuration not stated), for which the half-maximal activity concentration (AC50) was 1 µM [falling, partial curve, poor fit]. For `Cc1c(F)cccc1NS(=O)(=O)c1ccccc1C#N`, the AC50 was 3.55 µM [falling, full curve]. In the case of `COc1ccc(C2=NOC(C(=O)N3CCCCCC3)C2)cc1OC` (configuration not stated), the concentration at half-maximal activity (AC50) was 1.26 µM [falling, full curve]. On to `CC1=C(C(=O)Nc2ccccn2)C(c2ccc(Br)cc2)n2ncnc2N1` (configuration not stated), for which the AC50 was 15.8 µM [falling, single point]. Consider `Cc1cc(NC(=O)C2CCN(S(=O)(=O)c3ccc(Br)s3)CC2)ccc1Br`, for which the AC50 was 22.4 µM [rising, single point]. Take `COc1ccccc1NC(=O)C1C2CCCCC21` (configuration not stated): the AC50 was 0.00501 µM [rising, full curve, poor fit]. Regarding `CCOC(=O)c1cn(CC)c2ccc(Br)cc2c1=O`, the AC50 is 0.00316 µM [rising, full curve, poor fit]. In the case of `CCOc1ccccc1N1CCN(Cc2ccc(OC)c(OC)c2OC)CC1` it was 0.1 µM [falling, full curve, poor fit]; in that of `COCn1c(-c2ccc(OC)cc2)nc2ccccc21`, 12.6 µM [falling, single point].

Take `COc1cc(OC)cc(C(=O)NC2CCN(CC(=O)Nc3cccc4ccccc34)CC2)c1`: the AC50 was 3.98 µM [falling, single point]. Consider `Cc1cccn2c(=O)c(/C=C(\C#N)c3nc4ccccc4n3C)c(Oc3ccc(Cl)cc3)nc12`, for which the half-maximal activity concentration (AC50) was 0.0562 µM [falling, partial curve]. For the compound `CC1CCN(S(=O)(=O)c2ccc(S(=O)(=O)NCc3ccccc3)cc2)CC1`, the AC50 was 31.6 µM [falling, partial curve].

In the case of `CC(O)CNCc1cccc2ccccc12` (configuration not stated), the concentration at half-maximal activity (AC50) is 0.251 µM [falling, single point].

Take `CCN1CCN(c2nc(C)c3c(n2)CCCC3=O)CC1`: the concentration at half-maximal activity (AC50) was 0.794 µM [rising, single point]. In the case of `COC(=O)CSc1nnc2c(C)cc3cc4c(cc3n12)OCCO4` it was 0.0126 µM [rising, full curve, poor fit]; in that of `CCC(=O)Nc1cccc(C(=O)/C=C/c2cc(Br)ccc2OC)c1`, 0.794 µM [falling, full curve, poor fit]; in that of `Cc1cc(NC(=O)CSc2ccc(-c3ccccc3)nn2)no1`, 0.0794 µM [falling, single point]. For the compound `CC(C)(C)c1ccc(OCCN2CCCC2)cc1`, the AC50 is 25.1 µM [rising, partial curve]. As to `Clc1cccc(CSc2ncn(-c3ccccc3)n2)c1`, the half-maximal activity concentration (AC50) was 31.6 µM [rising, single point]. Take `CCOC(=O)c1c(NC(=O)c2ccco2)n(C2CCCCC2)c2nc3ccccc3nc12`: the half-maximal activity concentration (AC50) is 7.94 µM [rising, partial curve, poor fit].

For the compound `CCOC(=O)c1nnn(-c2nonc2N)c1CN(CC)CC`, the half-maximal activity concentration (AC50) was 0.0631 µM [falling, full curve, poor fit]. `Fc1ccc(NCc2ccccc2-c2nnc(-c3ccccc3Cl)o2)cc1Cl`: the AC50 is 2 µM [falling, full curve, poor fit]. To `COc1ccc2cc3cc(C(=O)NCCN4CCc5ccccc5C4)oc3nc2c1` belongs 0.126 µM [falling, full curve, poor fit]; to `O=C1NCCN1C(=O)c1ccccc1F`, 0.501 µM [falling, full curve, poor fit].

In the case of `CCCOc1ccc(C(=O)Nc2ccc(NC(=O)c3ccc(Br)cc3)cc2)cc1`, the AC50 was 0.501 µM [falling, full curve, poor fit]. For `NS(=O)(=O)c1ccc(NS(=O)(=O)c2cccs2)cc1`, the AC50 is 10 µM [falling, partial curve, poor fit]. With `Cc1nc2sc(C(c3ccc(Cl)cc3)N3CCOCC3)c(O)n2n1` (configuration not stated), the half-maximal activity concentration (AC50) is 0.158 µM [falling, full curve, poor fit]. To `CCOc1ccc2nc(Cl)c(C3CC(c4ccccc4)=NN3C(=O)CCC(=O)O)cc2c1` (configuration not stated) belongs 0.0562 µM [falling, full curve, poor fit]; to `CN(C)c1ccc(C=NCCC2(O)CCOC(C)(C)C2)cc1` (configuration not stated), 5.62 µM [rising, single point]; to `CCCN(C(=O)c1ccccc1N)c1c(C)n(C)n(-c2ccccc2)c1=O`, 0.794 µM [rising, full curve].
